Test results published in article PMC9279507.
For some assays here: A negative result means that nothing was seen under these conditions. For at least one entry, the source does not settle the construct or the ends of the probe.

By UniProt entry, the sequences of proteins in these tests, tags left out. Residues count along the entry.
UniProt P42224, 132-713: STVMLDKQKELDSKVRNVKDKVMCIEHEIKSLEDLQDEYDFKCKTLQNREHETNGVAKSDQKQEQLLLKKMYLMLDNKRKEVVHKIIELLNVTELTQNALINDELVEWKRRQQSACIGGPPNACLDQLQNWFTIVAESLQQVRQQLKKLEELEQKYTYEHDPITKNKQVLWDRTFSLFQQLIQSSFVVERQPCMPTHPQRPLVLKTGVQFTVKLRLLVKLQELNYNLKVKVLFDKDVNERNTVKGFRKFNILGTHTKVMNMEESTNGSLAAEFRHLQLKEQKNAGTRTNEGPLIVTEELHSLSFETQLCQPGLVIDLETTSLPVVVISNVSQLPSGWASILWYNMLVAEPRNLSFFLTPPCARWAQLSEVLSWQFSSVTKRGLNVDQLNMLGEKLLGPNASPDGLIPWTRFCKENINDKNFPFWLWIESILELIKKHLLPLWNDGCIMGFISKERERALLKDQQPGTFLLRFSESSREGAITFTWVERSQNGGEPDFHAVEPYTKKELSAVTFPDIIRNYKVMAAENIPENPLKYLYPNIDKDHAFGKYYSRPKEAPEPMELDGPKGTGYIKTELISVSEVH

Key:
[1] = tested on: pSTAT1d (phosphorylated STAT1 core dimer) + TgIST-T2; assay: competition with a labelled probe; settings: excess cold probe competes 2nd GAF; EMSA: 10 mM Tris pH 7.5, 50 mM KCl, 10 mM DTT, 0.125% Tween-20, 0.05 ug poly(dI-dC), 0.025 ug salmon sperm DNA per 20 ul, room temperature, 10 min; recombinant protein; protein details: N-terminal Strep,6xHis; label: unlabeled
[2] = molecular target: pSTAT1d (phosphorylated STAT1 core dimer) (UniProt P42224); assay: EMSA; settings: 60 pmol STAT1 dimer, 0.05 pmol DNA; EMSA: 10 mM Tris pH 7.5, 50 mM KCl, 10 mM DTT, 0.125% Tween-20, 0.05 ug poly(dI-dC), 0.025 ug salmon sperm DNA per 20 ul, room temperature, 10 min; recombinant protein; residues 132-713; protein details: N-terminal Strep; label: IRDye (far-red) 5' on both strands
[3] = tested on: pSTAT1d (phosphorylated STAT1 core dimer) + TgIST-T2; assay: EMSA; settings: EMSA: 10 mM Tris pH 7.5, 50 mM KCl, 10 mM DTT, 0.125% Tween-20, 0.05 ug poly(dI-dC), 0.025 ug salmon sperm DNA per 20 ul, room temperature, 10 min, recombinant protein, protein details: N-terminal Strep,6xHis, label: IRDye (far-red) 5' on both strands
[4] = tested on: pSTAT1d (phosphorylated STAT1 core dimer) + TgIST-R2-GST; assay: EMSA; settings: supershifted 2nd GAF; EMSA: 10 mM Tris pH 7.5, 50 mM KCl, 10 mM DTT, 0.125% Tween-20, 0.05 ug poly(dI-dC), 0.025 ug salmon sperm DNA per 20 ul, room temperature, 10 min; recombinant protein; protein details: N-terminal Strep,GST; label: IRDye (far-red) 5' on both strands

“GATGTATTTCCCAGAAAAGG (double strand) [GAS cold competitor]”: binds [1].
“GATGTATTTCCCAGAAAAGG (double strand) [GAS probe (Fc-gamma receptor gene)]”: binds [2]; binds ([3]; supershifted 2nd GAF, TgIST-T2 concentration-dependent); binds [4].
“GGGAAAGGGAAACCGAAACTGAAGCC (double strand) [ISRE probe (ISG15)]”: no binding ([3]; TgIST-T2 added).
